Measurements taken from US5871937A, “Acute phase protein modulating endotoxic activity of lipopolysaccharides, assay methods and polypeptides” (priority 1997, dated 1999).

B1: LBP: acute phase glycoprotein of about 60 kD that binds LPS and retards its binding to HDL (protein, UniProt P17454 27-482, looked up)
Lipopolysaccharide-binding …: TNPGLITRITDKGLEYAAREGLLALQRKLLEVTLPDSDGDFRIKHFGRAQYKFYSLKIPRFELLRGTLRPLPGQGLSLDISDAYIHVRGSWKVRKAFLRLKNSFDLYVKGLTISVHLVLGSESSGRPTVTTSSCSSDIQNVELDIEGDLEELLNLLQSQIDARLREVLESKICRQIEEAVTAHLQPYLQTLPVTTQIDSFAGIDYSLMEAPRATAGMLDVMFKGEIFPLDHRSPVDFLAPAMNLPEAHSRMVYFSISDYVFNTASLAYHKSGYWNFSITDAMVPADLNIRRTTKSFRPFVPLLANLYPNMNLELQGTVNSEQLVNLSTENLLEEPEMDIEALVVLPSSAREPVFRLGVATNVSATLTLNTRKITGFLKPGRLQVELKESKVGGFNVELLEALLNYYILNNLYPKVNEKLAHRFPLPLLRHIQLYDLLLQTHENFLLVGANIQYRRV
B2: BPI: bactericidal/permeability increasing protein, a product of neutrophils (protein, UniProt P17213 32-487, looked up)
Bactericidal …: VNPGVVVRISQKGLDYASQQGTAALQKELKRIKIPDYSDSFKIKHLGKGHYSFYSMDIREFQLPSSQISMVPNVGLKFSISNANIKISGKWKAQKRFLKMSGNFDLSIEGMSISADLKLGSNPTSGKPTITCSSCSSHINSVHVHISKSKVGWLIQLFHKKIESALRNKMNSQVCEKVTNSVSSELQPYFQTLPVMTKIDSVAGINYGLVAPPATTAETLDVQMKGEFYSENHHNPPPFAPPVMEFPAAHDRMVYLGLSDYFFNTAGLVYQEAGVLKMTLRDDMIPKESKFRLTTKFFGTFLPEVAKKFPNMKIQIHVSASTPPHLSVQPTGLTFYPAVDVQAFAVLPNSSLASLFLIGMHTTGSMEVSAESNRLVGELKLDRLLLELKHSNIGPFPVELLQDIMNYIVPILVLPRVNEKLQKGFPLPTPARVQLYNVVLQPHQNFLLFGADVVYK

Test: CsCl centrifugation density of LPS complexes
Assay type: binding
Details: for Density reached, shift from 1.33 g/cc: combining LPS, HDL and the protein

Molecule | Density reached, shift from 1.33 g/cc | Density of LBP-LPS complex (purified glycoprotein and LPS admixed in vitro in normal serum) [g/cc]
B1 | less than 1.2 g/cc | 1.3
B2 | 1.29 g/cc | –
